In publication PMC11681593:
Results are given in words; binding and its absence hold for the method and conditions named. Binding seen in cells or lysates may run through a third protein. Some entries that bind do so weakly or less than the wild type.

Amino acid sequences for entries named in this document (tags omitted).
UniProt Q8R4B8: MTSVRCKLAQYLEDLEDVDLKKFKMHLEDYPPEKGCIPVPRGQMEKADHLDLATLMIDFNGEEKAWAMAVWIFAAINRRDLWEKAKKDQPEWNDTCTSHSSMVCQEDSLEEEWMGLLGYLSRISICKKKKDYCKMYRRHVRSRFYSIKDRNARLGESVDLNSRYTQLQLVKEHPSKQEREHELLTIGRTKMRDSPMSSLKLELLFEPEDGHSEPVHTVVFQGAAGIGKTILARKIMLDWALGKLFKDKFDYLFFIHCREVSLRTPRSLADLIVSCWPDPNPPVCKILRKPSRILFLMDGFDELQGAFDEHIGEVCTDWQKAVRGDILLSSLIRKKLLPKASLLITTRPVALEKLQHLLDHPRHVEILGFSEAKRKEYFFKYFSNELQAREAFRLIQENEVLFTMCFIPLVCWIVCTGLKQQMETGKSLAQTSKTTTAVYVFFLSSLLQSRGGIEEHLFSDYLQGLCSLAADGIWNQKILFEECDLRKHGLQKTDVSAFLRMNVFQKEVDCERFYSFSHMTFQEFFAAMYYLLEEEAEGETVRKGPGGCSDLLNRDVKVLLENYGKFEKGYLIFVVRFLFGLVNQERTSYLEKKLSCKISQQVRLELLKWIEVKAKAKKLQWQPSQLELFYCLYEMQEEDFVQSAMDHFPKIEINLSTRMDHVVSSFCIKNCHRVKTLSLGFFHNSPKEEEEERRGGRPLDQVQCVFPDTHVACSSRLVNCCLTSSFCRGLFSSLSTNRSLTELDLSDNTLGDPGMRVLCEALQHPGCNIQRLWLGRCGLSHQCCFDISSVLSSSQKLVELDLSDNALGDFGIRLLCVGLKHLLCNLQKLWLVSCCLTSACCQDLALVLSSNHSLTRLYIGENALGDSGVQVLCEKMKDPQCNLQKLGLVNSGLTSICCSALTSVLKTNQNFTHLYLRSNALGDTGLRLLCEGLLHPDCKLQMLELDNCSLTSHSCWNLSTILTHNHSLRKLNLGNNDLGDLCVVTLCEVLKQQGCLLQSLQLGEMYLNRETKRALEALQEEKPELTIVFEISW
UniProt D4A523: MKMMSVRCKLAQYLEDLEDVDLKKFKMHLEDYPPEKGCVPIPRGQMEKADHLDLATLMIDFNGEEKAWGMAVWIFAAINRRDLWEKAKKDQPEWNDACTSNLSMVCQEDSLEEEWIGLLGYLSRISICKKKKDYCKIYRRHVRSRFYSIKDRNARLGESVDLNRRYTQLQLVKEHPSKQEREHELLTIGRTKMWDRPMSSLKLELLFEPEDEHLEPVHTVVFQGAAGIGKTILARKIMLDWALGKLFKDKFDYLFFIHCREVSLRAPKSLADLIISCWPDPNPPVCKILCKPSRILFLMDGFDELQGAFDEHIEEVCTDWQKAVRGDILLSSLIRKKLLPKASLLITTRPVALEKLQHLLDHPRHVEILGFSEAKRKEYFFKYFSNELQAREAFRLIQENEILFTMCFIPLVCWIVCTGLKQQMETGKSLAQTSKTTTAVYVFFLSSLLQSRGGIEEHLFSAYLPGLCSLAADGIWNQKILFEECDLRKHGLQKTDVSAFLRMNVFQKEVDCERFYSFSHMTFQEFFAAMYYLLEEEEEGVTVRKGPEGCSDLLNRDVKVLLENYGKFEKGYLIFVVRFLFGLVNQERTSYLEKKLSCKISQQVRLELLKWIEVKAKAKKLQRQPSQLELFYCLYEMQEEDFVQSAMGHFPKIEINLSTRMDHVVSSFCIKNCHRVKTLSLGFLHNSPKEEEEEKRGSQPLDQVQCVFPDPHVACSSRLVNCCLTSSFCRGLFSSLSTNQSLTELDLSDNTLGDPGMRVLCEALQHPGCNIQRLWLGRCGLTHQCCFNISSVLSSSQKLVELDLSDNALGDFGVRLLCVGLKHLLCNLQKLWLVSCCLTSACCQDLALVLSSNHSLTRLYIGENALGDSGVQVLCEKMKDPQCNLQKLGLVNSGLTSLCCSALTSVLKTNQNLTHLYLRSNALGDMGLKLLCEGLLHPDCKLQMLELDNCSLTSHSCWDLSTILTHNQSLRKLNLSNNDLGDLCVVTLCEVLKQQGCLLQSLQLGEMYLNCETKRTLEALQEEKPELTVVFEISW

Key:
[1] = biological target: T1, thioredoxin-interacting protein (TXNIP), mouse heart (mouse (endogenous in heart tissue)) (UniProt Q8BG60); assay: co-IP; endogenous co-immunoprecipitation from mouse heart tissue lysate with TXNIP antibody, immunoblot for NLRP3, TXNIP and thioredoxin; mice on ND or HFD for 24 wks, with rAAV9-cTnT-null or rAAV9-cTnT-TXNIP (Figure S5I), or with NS or MitoTEMPO (Figure 7I)
T1 sequence: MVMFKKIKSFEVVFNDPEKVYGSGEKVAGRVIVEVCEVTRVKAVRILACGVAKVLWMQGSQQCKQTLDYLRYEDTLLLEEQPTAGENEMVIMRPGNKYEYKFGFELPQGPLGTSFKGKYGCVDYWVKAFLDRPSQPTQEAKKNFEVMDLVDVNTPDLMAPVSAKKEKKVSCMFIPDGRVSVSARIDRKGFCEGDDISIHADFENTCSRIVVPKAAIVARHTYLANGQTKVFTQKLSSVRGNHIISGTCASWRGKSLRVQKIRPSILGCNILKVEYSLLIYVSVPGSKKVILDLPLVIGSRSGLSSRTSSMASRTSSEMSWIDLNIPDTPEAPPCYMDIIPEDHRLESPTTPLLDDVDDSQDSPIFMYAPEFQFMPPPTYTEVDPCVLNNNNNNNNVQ

[2] = biological target: T2, thioredoxin-interacting protein (TXNIP), neonatal rat ventricular myocytes (rat (endogenous in neonatal rat ventricular myocytes)) (UniProt Q5M7W1); assay: co-IP; endogenous co-immunoprecipitation from NRVM cell lysates with TXNIP antibody, immunoblot for NLRP3, TXNIP and TRX; cells in BSA or BSA+PA medium for 24 h, with PBS or MitoTEMPO, with siTXNIP or siCTR
T2 sequence: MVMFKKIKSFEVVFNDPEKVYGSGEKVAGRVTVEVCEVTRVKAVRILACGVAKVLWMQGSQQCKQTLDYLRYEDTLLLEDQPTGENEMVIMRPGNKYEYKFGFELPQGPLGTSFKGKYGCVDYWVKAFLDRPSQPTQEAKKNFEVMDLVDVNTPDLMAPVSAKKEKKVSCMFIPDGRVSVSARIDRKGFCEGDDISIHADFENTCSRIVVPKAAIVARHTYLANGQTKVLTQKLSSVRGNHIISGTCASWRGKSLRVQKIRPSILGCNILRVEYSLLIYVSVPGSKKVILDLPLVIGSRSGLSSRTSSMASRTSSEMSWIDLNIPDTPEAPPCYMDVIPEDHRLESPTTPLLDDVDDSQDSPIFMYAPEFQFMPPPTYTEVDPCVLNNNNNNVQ

nucleotide-binding oligomerization domain-like receptor 3 (NLRP3), mouse heart (from UniProt Q8R4B8 1-1033)
binding [1]: binds

nucleotide-binding oligomerization domain-like receptor 3 (NLRP3), neonatal rat ventricular myocytes (from UniProt D4A523 1-1035)
binding [2]: binds
